Source: patent US12139742B2, “Devices, systems, and methods for preparing a standardized inoculum for antimicrobial susceptibility testing” (Avails Medical, Inc., priority 2020, dated 2024)

Assays:
[1] = system: 23 different positive blood culture (PBC) samples comprising seven different species of bacteria; experiment: Kirby-Bauer disk diffusion AST of 0.5 McFarland inocula (present method vs traditional subculture); type: cell-based; settings: categorical agreement
Text: The standardized inoculum 1726 (e.g., the 0.5 McFarland inoculum) can then be used directly for antimicrobial susceptibility testing using manual disk diffusion or diluted further for automated AST platforms. For example, the standardized inoculum 1726 prepared using the method 1700 and system 1702 disclosed herein can be subjected to manual Kirby-Bauer disk diffusion AST or an automated AST platform such as the VITEK®2 platform.
(§1) Both the present method 1700 and traditional microbial subculturing techniques were used to prepare standardized 0.5 McFarland inocula for AST using Kirby-Bauer disk diffusion (see Table 1) and the automated VITEK2 GN81 AST platform (see Table 2).
Two sets of standardized 0.5 McFarland inocula were prepared from 23 different positive blood culture (PBC) samples comprising seven different species of bacteria. The 23 PBC samples included six samples of Escherichia coli (ECo), two samples of Enterobacter cloacae (ECl), three samples of Klebsiella pneumoniae (KPn), four samples of Klebsiella oxytoca (KOx), two samples of Citrobacter freundii (CFr), four samples of Serratia marcescens (SMa), and two samples of Klebsiella aerogenes (KAe). […]
In total, 296 minimum inhibitory concentrations (MICs) from the VITEK®2 GN81 platform and 224 zone sizes on disk diffusion were evaluated.

[2] = system: 23 different positive blood culture (PBC) samples comprising seven different species of bacteria; experiment: VITEK 2 GN81 automated AST of 0.5 McFarland inocula (present method vs traditional subculture); type: cell-based; settings: for % CA: categorical agreement; for % EA: essential agreement
Protocol: as §1
Two sets of standardized 0.5 McFarland inocula were prepared from 23 different positive blood culture (PBC) samples comprising seven different species of bacteria. The 23 PBC samples included six samples of Escherichia coli (ECo), two samples of Enterobacter cloacae (ECl), three samples of Klebsiella pneumoniae (KPn), four samples of Klebsiella oxytoca (KOx), two samples of Citrobacter freundii (CFr), four samples of Serratia marcescens (SMa), and two samples of Klebsiella aerogenes (KAe).
The first set was prepared using the presently disclosed method 1700 (sample preparation time: between 60 minutes and 180 minutes) and the second set was prepared using traditional microbial subculturing techniques (sample preparation time: between 18 hours to 24 hours). The testing was conducted using the automated VITEK®2 GN81 AST platform (see Table 1) and manual Kirby-Bauer disk diffusion (see Table 2).

Row | SMILES | % CA [1] [%] | % CA [2] [%] | % EA [2] [%]
1 | CC1(C)S[C@@H]2[C@H](NC(=O)[C@H](N)c3ccccc3)C(=O)N2[C@H]1C(=O)O [Ampicillin] | 100 | 100 | 100
2 | CO/N=C(\C(=O)N[C@@H]1C(=O)N2C(C(=O)O)=C(CSc3nc(=O)c(=O)[nH]n3C)CS[C@H]12)c1csc(N)n1 [Ceftriaxone] | 95.7 | 95.7 | 91.3
